# Primary screen of a compound library

Source: ChEMBL document CHEMBL3988442, “University of Dundee, Small-Polar-MMV Screening Library” (2021).

T. brucei: 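Whole-parasite assay of Trypanosoma brucei over 72 hours; the read-out is not stated. Concentration: 30 µM. Direction is inferred from retests: higher values go with stronger inhibition. Values scatter widely below zero; nearly all retest evidence comes from the higher of the two concentrations used. Of about 64,000 compounds tested this way, about 940 (1.5%) reached 50% or more in at least one test.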
Toxoplasma: 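Assay of Toxoplasma gondii numbers, read through their beta-galactosidase reporter with a colour substrate. Tested at 10 µM. Higher reads as fewer parasites (inferred from which compounds were picked for retests). Of about 67,000 compounds tested this way, about 260 (0.38%) reached 50% or more in at least one test.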

Each number is a percent effect as filed.
The controls that fix the scale are not given in the record; negative values are as filed.
The compounds are a random part of those screened.
A dash means the value is not listed here; it may have been measured.

compound | T. brucei | Toxoplasma
O=C(c1cc(-c2cccs2)nc2ccccc12)N1CCN(CCO)CC1 | 6.126% | 12.59%
CCc1nc(NS(=O)(=O)c2cc(C)cc(F)c2)no1 | -14.22% | -4.118%
Cc1n[nH]c(C)c1C1CCCN1C(=O)c1coc(Br)c1 (stereo not shown) | -19.07% | -1.724%
O=C1CCC2(CCNCC2)CN1CCCNc1cccnc1 | -35.61% | 8.571%
CC1CCN(C(=O)c2cn(-c3ccc(C(F)(F)F)cn3)nn2)CC1 | 2.153% | -3.366%
Cc1cc(C(=O)NC2CCN(C(=O)Nc3cccnc3)CC2)c(C)o1 | 2.264% | -2.401%
COC1(CNC(=O)c2cccc(C#N)c2)CCSC1 (stereo not shown) | -31.26% | -19.59%
Cc1ccc(C(=O)OC(C)Cn2cccn2)c(=O)[nH]1 (stereo not shown) | -12.04% | -5.175%
CCC(C)NC(=O)c1ccc(CNC(=O)COC)cc1 (stereo not shown) | -17.41% | 11.46%
COCc1ccc(CNc2cnn(C(C)(C)C)c(=O)c2Cl)cc1 | 0.9847% | 4.637%
O=C(c1ccc(S(=O)(=O)N2CCSCC2)cc1)N1CCC(O)C1 (stereo not shown) | -1.626% | 3.235%
CN1CCc2[nH]nc(C(=O)N3CCCC4(CC3)CNC(=O)O4)c2C1 (stereo not shown) | -18.37% | 1.231%
O=C(c1cccnc1)N1CCOC(Cc2ccccc2Cl)C1 (stereo not shown) | 4.622% | -16.52%
CC(=O)N1CCc2cc(Cl)cc(Cl)c2C1 | -10.3% | -21.76%
CNS(=O)(=O)c1ccc(CNC(=O)NCC2CCC2)cc1 | 19.86% | 2.2%
CCn1cc(CN2CCCC3(CCC(=O)N(CCC(C)C)C3)C2)cn1 (stereo not shown) | -11.94% | 5.62%
CC1c2ncc(Cn3cncn3)n2CCN1CC1CCOCC1.O=C(O)C(F)(F)F (stereo not shown) | -11% | -0.6331%
CCc1ncc2c(n1)CN(Cc1nc(-c3ccsc3)oc1C)CC2 | -4.148% | 2.574%
Cc1nccn1-c1ccc(C(C)NCCc2ccccn2)cc1 (stereo not shown) | -11.65% | -2.717%
CCc1ccc(CN(C)c2ccc(-c3nc(COC)no3)cn2)nc1 | -7.238% | 4.298%
c1ccc(CSc2nnc(C3CC3)s2)nc1 | -6.575% | -0.9604%
O=C(O)C(F)(F)F.O=C(O)C(F)(F)F.[H][C@@]12COC[C@]1(CNS(C)(=O)=O)CN(Cc1cccnc1OC)C2 | -41.95% | 12.37%
[H][C@@]12C[C@H](C(=O)NCc3ccco3)CN(C(=O)N(C)C)[C@]1([H])CCO2 | -13.76% | -1.3%
CCc1nn(C)c(Cl)c1CN1CCN(c2ccc(Cl)nn2)CC1 | -4.889% | 3.092%
COc1cccc(N2CC3(CCN(c4cnccn4)C3)CC2=O)c1 (stereo not shown) | -75.49% | 2.37%
c1cc(C2CCCN2CC2CC2)n[nH]1 (stereo not shown) | - | -6.008%
O=C(c1cnc(Nc2ccccc2)nc1)N1CCC2(CCNCC2)CC1 | 14.43% | 6.824%
CC(C)c1nc(C2CCCN(C(=O)CN(C)S(C)(=O)=O)C2)no1 (stereo not shown) | -8.412% | 2.363%
Cc1ncsc1CCC(=O)NC1CCN(Cc2cccs2)CC1 | - | -23.4%
CCc1nc(NCCc2c(C)nn(CC)c2C)c2cnn(C)c2n1 | 12.77% | -0.8046%
CN(C)C(CNC(=O)c1cc2c([nH]c1=O)CCCC2=O)c1ccsc1 (stereo not shown) | 3.877% | 7.539%
O=C(c1cc(-c2ccn(CC3CC3)n2)n2ccccc12)N1CCCO1 | -0.5665% | 11.42%
c1cnc2c(C3CCN(Cc4ccsc4)CC3)n[nH]c2n1 | -14.11% | 24.02%
O=C(O)C(=O)O.c1cnc(-c2noc(C3CN(Cc4ccc5c(c4)CCO5)C3)n2)cn1 | 16.8% | 14.41%
COC(=O)c1ccc(N2CCN(C(=O)c3cnc(C)cn3)C(C)C2)cc1 (stereo not shown) | 8.397% | -20.77%
c1nc(N2CCc3[nH]cnc3C2)c2cc[nH]c2n1 | 75.2% | -1.679%
CS(=O)(=O)CCNC(=O)NCCc1cc2ccccc2o1 | -21.01% | -0.8115%
CCOc1cc(CN(C)CCOC)ccc1OC(F)F | -41.39% | -2.673%
O=C(NCC1CC1)C1CCC2(CCN(C(=O)c3ccco3)CC2)O1 (stereo not shown) | 5.783% | -1.405%
Cc1nnc2n1CCN(Cc1nc(-c3ccoc3)no1)C2 | -5.981% | 13.46%
O=c1[nH]nc(CNCc2ccc(OC34CCCN(CC3)C4)cc2)[nH]1 (stereo not shown) | -0.5692% | -8.744%
COc1ccc(C(=O)N2CCCCC2c2nccs2)c(OC)c1 (stereo not shown) | -21.39% | 11.74%
O=C(O)C(F)(F)F.[H][C@]12CCN(C(=O)NCc3ccccc3)C[C@@]1([H])OCCN(C(C)C)C2 | -45.47% | -6.442%
Cc1oc(-c2ccco2)nc1CC(=O)N1CCN(C2CCC2)CC1 | -23.65% | -2.422%
Cc1nc(CN2CCCC(N(C)Cc3c(C)noc3C)C2)no1 (stereo not shown) | 4.864% | 16.13%
CCc1nc(C2CCCN2Cc2nc(CCOC)no2)no1 (stereo not shown) | -55.74% | 14.99%
CN(Cc1nc2ccccc2o1)C1CCCN(c2cccnn2)C1 (stereo not shown) | -14.6% | 7.173%
COc1cc(Oc2ccc(C(F)(F)F)cn2)ccc1CN1CCCC1 | -2.288% | 6.867%
c1ccc(Cc2noc(-c3ccc(NCC4CCCCO4)nc3)n2)cc1 (stereo not shown) | 45.58% | -10.53%
CN(C)Cc1cnc2n1CCN(C(=O)Cc1cccc(F)c1)CC2.O=C(O)C(F)(F)F | -51.63% | -5.232%
COCC1(NC(=O)Nc2nc(C)ns2)CCCC1 | -20.13% | -6.943%
O=C1CN(c2ccc(CNC(=O)NCC3CCOC3)cc2)CCN1 (stereo not shown) | -0.109% | 7.17%
O=C(O)C(F)(F)F.[H][C@@]12CN(Cc3ccco3)CCC[C@]1(C(=O)OCC)CN(S(C)(=O)=O)C2 | 4.884% | -7.554%
Cc1cccc(-c2nc3cc(S(=O)(=O)N4CCCC4)ccc3n2C)n1 | -75.42% | 22.32%
COc1ccc(OCCN2CCOCS2(=O)=O)cc1 | -8.852% | -4.689%
COc1cc(CN2CCCC2)ccc1Oc1ncccc1C(F)(F)F | - | -8.84%
NS(=O)(=O)CCNC(=O)C1(c2ccccc2)CC1 | -45% | -1.092%
O=C1CCC2(CCN(Cc3cc(F)ccc3Cl)CC2)CN1C1CCCC1 | 2.193% | -2.974%
CCN1C(=O)CCC12CCCN(CCc1ccccc1)C2 (stereo not shown) | 7.535% | 2.404%
CO[C@@H]1CN(c2ccccc2)S(=O)(=O)[C@@]12CCN(CC1CC1)C2 | -26.43% | -29.24%
CC(C)(C)OC(=O)N1CCC(NCc2cnn(C(C)(C)C)c2)CC1 | -39.45% | 0.3236%
O=C(C1=CCCCC1)N1CCC2(CC1)COC(COc1ccccn1)C2.O=C(O)C(F)(F)F (stereo not shown) | -5.31% | -5.094%
CCc1cnc(CN2CCC(N(C)Cc3noc(C)n3)C2)o1 (stereo not shown) | - | -44.57%
CCc1ncc(C(=O)N2CC(Oc3ccccc3Cl)C2)cn1 | -8.255% | 3.441%
CN1CC2(CCN(C(=O)c3cccnc3)CC2)c2cccc(F)c21.Cl | -15.84% | 6.865%
Cc1nc(CCN2CCC(Oc3ccccc3F)CC2)c(C)s1 | 14.09% | -16.52%
CN(Cc1cn2c(n1)CN(C(=O)C1CCCO1)CC2)Cc1ccco1 (stereo not shown) | -16.92% | -1.016%
O=C1CN(C(=O)C2CN(c3cccc(Cl)c3)CCO2)CCN1 (stereo not shown) | -15.3% | -15.1%
O=C(O)C(F)(F)F.[H][C@@]12CCN(CCc3ccccc3)C[C@@]1([H])O[C@H](C(=O)NC1CCC1)C2 | -20.52% | -2.783%
O=C(O)C(F)(F)F.[H][C@@]12OCCN(C(=O)N3CCCC3)[C@@]1([H])CC[C@@H]2Oc1ccccn1 | -3.244% | 2.274%
Cc1cc(C2CCC2)nc(N2CCC3(CCNC(=O)CC3)CC2)n1 | -21.5% | 17.51%

Repeated from the top, 6 entries:

* O=C(c1cc(-c2cccs2)nc2ccccc12)N1CCN(CCO)CC1 : T. brucei: 6.126%; Toxoplasma: 12.59%
* CCc1nc(NS(=O)(=O)c2cc(C)cc(F)c2)no1 : T. brucei: -14.22%; Toxoplasma: -4.118%
* Cc1n[nH]c(C)c1C1CCCN1C(=O)c1coc(Br)c1 (stereo not shown) : T. brucei: -19.07%; Toxoplasma: -1.724%
* O=C1CCC2(CCNCC2)CN1CCCNc1cccnc1 : T. brucei: -35.61%; Toxoplasma: 8.571%
* CC1CCN(C(=O)c2cn(-c3ccc(C(F)(F)F)cn3)nn2)CC1 : T. brucei: 2.153%; Toxoplasma: -3.366%
* Cc1cc(C(=O)NC2CCN(C(=O)Nc3cccnc3)CC2)c(C)o1 : T. brucei: 2.264%; Toxoplasma: -2.401%